Laboratory results: PubChem BioAssay AID686943 (Drosophila RNAi Screening Center, 2013)
Assay: 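Fly genes whose loss alters ERK activation after insulin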 (primary screen). Cells: Drosophila S2R+ haemocyte-like cells expressing YFP-tagged ERK (Rolled). Reagents: long dsRNA against Drosophila genes. Conditions: insulin stimulation versus unstimulated cells; dose and duration not given. Detection: 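Per-plate z-scores of phospho-ERK immunostaining normalised to YFP-tagged ERK, measured with and without insulin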. Direction: replicate 1, z-score of dpERK with insulin and replicate 2, z-score of dpERK with insulin: higher = more active ERK per ERK-YFP after insulin; replicate 1, z-score of dpERK under basal conditions: higher = more basal active ERK per ERK-YFP; replicate 1, z-score of ERK-YFP with insulin: higher = more YFP-tagged ERK signal.
In all, the deposit lists about 23,000 reagents; shown is an unselected part of those with a known target gene and a result. 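Extra replicates exist only for a retested subset of genes; insulin dose and duration not given; both raised and lowered dpERK matter.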 Reagents against one gene are numbered here. Names joined by + are all predicted targets of the reagent. No sequences are given here. Not given: the amount of reagent, the time to read-out.

gene | dsRNA no. | replicate 1, z-score of dpERK with insulin | replicate 2, z-score of dpERK with insulin | replicate 1, z-score of dpERK under basal conditions | replicate 1, z-score of ERK-YFP with insulin
CG16852 | 1 | -0.02 | 0.15 | -0.09 | -0.08
AP-1-2beta | 1 | 2.34 | 1.23 | -1.63 | -0.15
Bug22 | 1 | -0.22 | 0.53 | 0.46 | 0.43
CG9981 | 1 | 0.19 | 0.61 | 0.6 | 0.13
RNaseP:RNA | 1 | 0.42 | -1.43 | 1.41 | 0.89
eyg | 1 | -5.17 | -2.96 | -2.69 | 0.19
Vps16B | 1 | -0.38 | -1.48 | -0.5 | 0.17
CG1136 | 1 | 0.41 | -0.26 | 0.95 | 0.2
wgn | 1 | -0.53 | 0.3 | 1.23 | 0.15
CG6923 | 1 | 0.59 | 1.06 | -0.28 | -0.53
bsh | 1 | -0.87 | -0.5 | -1.7 | -0.54
CG14715 | 1 | -0.68 | -0.49 | -0.35 | 1.18
CG6144 | 1 | 0.24 | 0.55 | 0.78 | 1.35

A stretch from the list above, as a working copy:
gene | dsRNA no. | replicate 1, z-score of dpERK with insulin | replicate 2, z-score of dpERK with insulin | replicate 1, z-score of dpERK under basal conditions | replicate 1, z-score of ERK-YFP with insulin
AP-1-2beta | 1 | 2.34 | 1.23 | -1.63 | -0.15
Bug22 | 1 | -0.22 | 0.53 | 0.46 | 0.43
CG9981 | 1 | 0.19 | 0.61 | 0.6 | 0.13
RNaseP:RNA | 1 | 0.42 | -1.43 | 1.41 | 0.89

The results go on:
gene | dsRNA no. | replicate 1, z-score of dpERK with insulin | replicate 2, z-score of dpERK with insulin | replicate 1, z-score of dpERK under basal conditions | replicate 1, z-score of ERK-YFP with insulin
CG34136 | 1 | 1.02 | 0.39 | -0.46 | -0.9
snRNA:U1:95Cc + CG43285 (retired record) | 1 | -5.72 | -2.89 | -3.2 | -1.04
CG15262 | 1 | -0.4 | -0.18 | 0.26 | -0.53
CG3124 | 1 | 1.86 | -3.28 | -1.54 | -2.77
Ir7g | 1 | -0.27 | 0 | 0.11 | 0.14
Akr1B | 1 | 0.19 | 0.71 | 0.22 | 0.49
SC35 | 1 | -1.94 | -1.56 | -1.53 | -0.24
SC35 | 2 | 0.17 | -0.31 | 0.85 | 0.75
CCT1 | 1 | -1.23 | 0 | -0.4 | -0.96
CG3777 | 1 | 0.63 | 1.74 | 0.61 | 0.06
CG2712 | 1 | 0.62 | -0.12 | -0.58 | 1.12
Dph3 | 1 | 0.2 | 0.28 | 0.31 | 0.34
cher | 1 | 0.01 | 0.38 | -0.12 | 0.8
senju | 1 | 0.53 | 1.18 | 0.37 | -1
Tes | 1 | -0.67 | 0.53 | 0.56 | 0.38
Ppn | 1 | 1.17 | 0.12 | 0.41 | 0.45
CG11590 | 1 | 0.06 | -0.68 | -0.59 | 0.3
Prtl99C | 1 | 0.5 | -0.03 | -0.25 | 0.1
CG5645 | 1 | -0.06 | -0.24 | -0.41 | 0.93
CG13023 | 1 | -1.21 | -0.13 | 0.35 | 0.02
CG13023 | 2 | 0.26 | 0.27 | -0.66 | 0.22
CG30278 | 1 | -0.83 | -0.51 | 0.03 | 1.22
miple2 | 1 | 0.05 | 0.02 | -0.43 | 0.99
Cyp4aa1 | 1 | -0.49 | 0.79 | -0.55 | 0.11
kek2 | 1 | 0.01 | -0.42 | 0.12 | -0.2
SmydA-2 | 1 | -0.79 | 0.27 | 1.01 | 0.23
